Measurements reported in paper PMC12040169 (PLOS Biology, 2025).
The other results are listed elsewhere or left out.

Tested on: T1, CTL2-GFP (C. trachomatis L2/434/Bu, GFP-expressing)
T1 construct: L2/434/Bu, GFP-expressing
Set-up: species or system HeLa; Intracellular C. trachomatis growth in HeLa cells, bulk GFP fluorescence relative to DMSO
Conditions: bulk GFP, single well; 28.5 h, 10 µM; inhibitor

SMILES	% of control remaining [%]
Cc1nc(NC(=O)C2Cc3ccccc3S2)sc1-c1n[nH]c(=S)n1C (stereo not drawn) [CBK295337]	144.652
COc1cccc(OC)c1OCCN1CCC(NC(=O)Nc2ccc(Cl)cn2)CC1 [CBK051515]	100
CC1CCN(Cc2ccc(-c3cn(CC(=O)NCc4ccc(Br)cc4)nn3)cc2)CC1 [CBK164709]	84.6361
CCN(CC)Cc1cc([N+](=O)[O-])cc2c1OCOC2 [CBK296613]	127.511
O=C(C1=C(O)C(=O)N(CCCn2ccnc2)C1c1ccccc1)c1cccs1 (stereo not drawn) [CBK264484]	123.917
COc1ccc(S(=O)(=O)Nc2ccsc2C(=O)N2CCN(C)CC2)cc1OC [CBK004627]	111.063
O=C(COc1cccc2c1CCNC2=O)Nc1ccccc1 [CBK287730]	123.513
CN1CCN(c2cc(-c3ccncc3)nc3ccccc23)CC1 [CBK050976B]	124.203
O=C1CNC(=O)N1CC(O)Cn1c2ccc(Cl)cc2c2cc(Cl)ccc21 (stereo not drawn) [CBK265792]	114.629
CC(=O)Nc1ccc(OCC(O)CNC2CCCC2)cc1 (stereo not drawn) [CBK267857C]	167.861
O=C(O)CC(NC(=O)OCc1ccccc1)c1ccccc1 (stereo not drawn) [CBK265351]	97.252
COc1ncc(-c2nccnc2NCc2cccc([N+](=O)[O-])c2)c(OC)n1 [CBK036680]	122.145
COC(=O)c1ccc(CO)nc1 [CBK261376C]	100
O=C(c1ccc2c(c1)N(Cc1ccccc1Cl)C(=O)CO2)c1cccs1 [CBK286411]	118.227
O=C1N[C@]2(CCc3ccccc31)CN(CC1CC=CCC1)C[C@H]2CO (stereo partly drawn) [CBK284794]	179.724
Cn1cc2c(n1)CC1CCC2N1C(=O)c1ccc(F)c(F)c1 (stereo not drawn) [CBK281691]	116.111
CCCn1c(C)c(C)n2c3c(=O)n(CCC(=O)OC)c(=O)n(C)c3nc12 [CBK306048]	84.0884
Cc1nc(C(=O)NC2CCN(C)CC2)ccc1C(=O)O [CBK304262]	105.728
CCNC(=O)C1(Cc2ccccc2-c2ccccc2)CCN(C(=O)c2cccc(F)c2)CC1 [CBK285689]	120.393
O=C(O)CSc1nc(Nc2ccccc2)nc(N2CCOCC2)n1 [CBK269023]	110.798
Cn1ccc(CN2CCOC(c3nc(C(C)(C)C)cs3)C2)cc1=O (stereo not drawn) [CBK305771]	115.322
CC(C)(C)c1cc(CCC(=O)NNC(=O)c2ccccc2Cl)cc(C(C)(C)C)c1O [CBK268391]	56.397
CCOc1ccccc1NC(=O)CN(C)S(=O)(=O)c1ccc2ccccc2c1 [CBK266874]	151.422
C#CCN(C)CC[C@@H]1CC[C@H](O)[C@@H](C(=O)N2CCOCC2)O1 [CBK288723]	136.769
O=C(O)C1CCCCC1C(=O)NCCN1CCCCC1 (stereo not drawn) [CBK287031]	117.49
O=C(Nc1ccc(S(=O)(=O)N2CCCC2)cc1)c1ccc(COc2ccc3c(c2)CCC3)o1 [CBK265847]	119.458

SMILES	% of control remaining [%]
NC(=O)c1cccc(-c2cnc(N)c(N3CCC[C@@H]3CO)n2)c1 [CBK063458]	125.207
COc1ccccc1/C=N/N=C(/Nc1ccc(C)cc1)c1nc2ccccc2s1 [CBK265051]	97.2143
CC(=O)N1CC[C@H]2NC(=O)CNC(=O)C3(CCCC[C@H]2C1)CCN(C(=O)CN1CCCCC1)CC3 [CBK292120]	132.628
Cc1ccn2cc(CNC(=O)N(C)CCc3scnc3C)nc2c1 [CBK307379]	135.444
O=C(NC(c1ccccc1)c1ccccc1)c1ccc(Cl)cc1[N+](=O)[O-] [CBK262452]	120.333
CC(O)CN(CC(C)O)CC1CC2C=CC1C2 (stereo not drawn) [CBK261896]	116.655
CC(C)Nc1cc(Sc2ccccc2N)ncn1 [CBK093729]	106.261
CCC(c1ccc(F)cc1)N(C)C(=O)Cn1cccc(C(=O)NC2CCCCC2)c1=O (stereo not drawn) [CBK286114]	97.9142
O=C(N[C@H]1CCN2C(=O)c3cc(Br)ccc3NC(=O)[C@H]12)c1cccc(F)c1 [CBK289334]	134.932
N#Cc1cccnc1N1CC2COCCC2(C(=O)N2CCC=C(F)C2)C1 (stereo not drawn) [CBK304744]	128.706
O=C(Cn1cnc2c(cnn2-c2ccccc2)c1=O)NCc1ccco1 [CBK287531]	146.524
CCN(CC(=O)NCc1ccc(Cl)cc1)S(=O)(=O)N1CCCCCC1 [CBK305733]	109.337
OCCN1CCC2(CC1)CN(CCO)c1ccccc12 [CBK126759]	108.909
CCCn1nc(C)c(-c2cncn2CCCN2CCCCC2)c1C [CBK281496]	131.079
CN1C(c2ccccc2)=NO[C@]1(C)c1ccccc1 [CBK027170]	124.429
CN1CCN(NC(=O)COc2cccc(C(F)(F)F)c2)CC1 [CBK268124]	150.97
CC(=O)NC(c1ccccn1)C1CCCN(C(=O)C2CC2C)C1 (stereo not drawn) [CBK285032]	124.716
COc1ccc(C(=O)N2CCC3(CCCN(C(=O)CC4NC(=O)NC4=O)C3)C2)cc1OC (stereo not drawn) [CBK137082]	122.686
O=C1CN(C(=O)Nc2ccc3[nH]ccc3c2)CCN1 [CBK155858]	108.633
COc1cc(/C=C2\C(=O)N(c3ccccc3Cl)N=C2c2ccccc2)ccc1O [CBK265698]	133.836
COc1ccc2c(c1)C(C)CC(C)(C)N2C(=O)CSc1nnc(-c2ccco2)n1C (stereo not drawn) [CBK059169]	141.887
C=CCn1ncc(CN(C)Cc2nc3ccccc3[nH]2)c1C [CBK283169]	97.9157
CCCc1ccc(S(=O)(=O)n2ccn(-c3ccc4c(c3)OCO4)c2=O)cc1 [CBK106634]	88.3455
CCN(CC)CCN1CCN(c2cncc(-c3ccc(F)cc3F)n2)CC1 [CBK065668]	159.035
CCN(CC)C(=O)CN1CCC(Oc2cncc(OCCN3CCOCC3)n2)C1 (stereo not drawn) [CBK084490]	116.199
Cc1cc(C)n(CC(=O)N2CCCC2c2ccc(C)c(C)c2)c(=O)n1 (stereo not drawn) [CBK282991]	132.866

SMILES	% of control remaining [%]
COC(=O)c1ccc(N2CCN(Cc3nc(C)c(C)o3)C(C)C2)cc1 (stereo not drawn) [CBK304903]	107.484
CC(=O)C12c3ccccc3C(c3ccccc31)C1C(=O)N(c3ccc(Cl)c(C(=O)O)c3)C(=O)C12 (stereo not drawn) [CBK263021]	111.649
COc1cccc(CN2CCN(CC(=O)N3CCCC3)[C@@H](C)C2)c1 [CBK286171]	142.232
NC(=O)c1ccc(Nc2cc(N)ncn2)cc1 [CBK017969]	110.641
CN1CCN(NC(=O)c2cc(-c3cccnc3)nc3ccc(Cl)cc23)CC1 [CBK267729]	126.585
O=C(NC(=S)Nc1ccc2oc(-c3ccncc3)nc2c1)c1ccccc1[N+](=O)[O-] [CBK264106]	100
Cn1ncc(N2CCN(C(=O)CCN3CCCCCC3=O)CC2)cc1=O [CBK306508]	115.104
c1cncc(COc2nccnc2OC2CCN(CCOc3cccnc3)CC2)c1 [CBK083181]	132.832
C(#Cc1ccc(-c2nc(-c3ccc(Sc4ccccc4)cc3)c(-c3ccc(Sc4ccccc4)cc3)[nH]2)cc1)c1ccccc1 [CBK261954]	110.367
CCC12CN3CCN(CC(C3)/C1=N\O)C2 [CBK263022]	116.382
CCN(CC1CCN(c2ccccn2)CC1)C(=O)C1(C#N)CCCC1 [CBK304096]	152.304
CC(C)(N)CN(Cc1ccccc1)C(=O)/C=C/c1ccccc1 [CBK013891T]	98.0806
O=S(=O)(Nc1ccc(-c2nnn[nH]2)cc1)c1c(Cl)cc(C(F)(F)F)cc1Cl [CBK155570]	105.612
CC(C)Nc1nc2cc(Cl)c(Cl)cc2nc1SCCC(=O)O [CBK107860]	111.873
CN(C)CCNC1CS(=O)(=O)CC1O (stereo not drawn) [CBK059025]	125.534
O=C(NCc1ccncc1)c1nn(-c2ncccn2)c2ccccc12 [CBK048498]	100
COc1nccc(N2CCC3(CCCN(CC4CCC4)C3=O)C2)c1C#N (stereo not drawn) [CBK306861]	125.329
Cc1cccc(CNC(=O)CC2CCN(Cc3cccc(C(F)(F)F)c3)CC2)n1 [CBK285950]	115.886
NS(=O)(=O)c1ccc(NC(=O)CN2C(=O)S/C(=C\C=C\c3ccccc3)C2=O)cc1 [CBK264835]	119.344
CS(=O)(=O)c1ccc(-n2ncc(-c3cccc(C(F)(F)F)c3)n2)cc1 [CBK112672]	97.1627
Cc1cccc(NS(=O)(=O)c2ccc(OCC(=O)Nc3ccc4c(c3)OCCO4)cc2)c1 [CBK268068]	85.5567
Cc1cnn(CC(=O)N2CC[C@H]3NC(=O)c4ccccc4OCCCCC[C@H]3C2)c1 [CBK292010]	93.0243
O=C(O)CCSCc1ccc([N+](=O)[O-])cc1 [CBK262359]	109.037
Cc1cccc(C)c1OCc1nnc(SCc2ccc([N+](=O)[O-])cc2)n1C [CBK269737]	101.134
CCCCN(CCCC)S(=O)(=O)c1nc2nc(C)cc(C)n2n1 [CBK022076]	143.871
O=C(NCCN1CCN(C(=O)Nc2ccccc2)CC1)C1CCCC1 [CBK305915]	125.552

A stretch from the list above:
SMILES	% of control remaining [%]
CN1CCN(NC(=O)c2cc(-c3cccnc3)nc3ccc(Cl)cc23)CC1 [CBK267729]	126.585
O=C(NC(=S)Nc1ccc2oc(-c3ccncc3)nc2c1)c1ccccc1[N+](=O)[O-] [CBK264106]	100
Cn1ncc(N2CCN(C(=O)CCN3CCCCCC3=O)CC2)cc1=O [CBK306508]	115.104
c1cncc(COc2nccnc2OC2CCN(CCOc3cccnc3)CC2)c1 [CBK083181]	132.832
